Measured values: doi:10.1101/2025.09.09.675186
These are yes or no findings as the source states them, for the method shown. In cells and extracts the contact can be indirect. Some results given as binding are weak or reduced against the parent protein; the word gives no strength. For part of these data: Where a sequence is shown, tags or fusion partners need not be part of it.

Key:
[1] = target: T1, IRF7, endogenous in mouse bone marrow-derived macrophages (mouse (endogenous in BMDMs)) (UniProt P70434); test: proximity ligation
T1 sequence: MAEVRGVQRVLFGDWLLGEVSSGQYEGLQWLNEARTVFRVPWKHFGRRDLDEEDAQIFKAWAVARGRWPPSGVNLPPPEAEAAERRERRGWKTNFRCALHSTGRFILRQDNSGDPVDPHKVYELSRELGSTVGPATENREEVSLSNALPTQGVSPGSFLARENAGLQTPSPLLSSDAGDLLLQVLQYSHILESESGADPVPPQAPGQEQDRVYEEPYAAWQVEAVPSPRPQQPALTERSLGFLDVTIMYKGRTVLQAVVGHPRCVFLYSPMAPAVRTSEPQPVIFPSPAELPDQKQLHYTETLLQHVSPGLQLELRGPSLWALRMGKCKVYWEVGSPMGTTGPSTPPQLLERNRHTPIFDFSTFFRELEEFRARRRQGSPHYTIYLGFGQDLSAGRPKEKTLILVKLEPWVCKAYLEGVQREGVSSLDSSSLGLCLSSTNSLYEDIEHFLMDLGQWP

[2] = target: T2, V5-tagged IRF7 (IFN regulatory factor 7), stably expressed in IRF3-knockout HEK293T cells (HEK-KO.IRF7) (mouse) (UniProt P70434); test: co-IP
T2 sequence: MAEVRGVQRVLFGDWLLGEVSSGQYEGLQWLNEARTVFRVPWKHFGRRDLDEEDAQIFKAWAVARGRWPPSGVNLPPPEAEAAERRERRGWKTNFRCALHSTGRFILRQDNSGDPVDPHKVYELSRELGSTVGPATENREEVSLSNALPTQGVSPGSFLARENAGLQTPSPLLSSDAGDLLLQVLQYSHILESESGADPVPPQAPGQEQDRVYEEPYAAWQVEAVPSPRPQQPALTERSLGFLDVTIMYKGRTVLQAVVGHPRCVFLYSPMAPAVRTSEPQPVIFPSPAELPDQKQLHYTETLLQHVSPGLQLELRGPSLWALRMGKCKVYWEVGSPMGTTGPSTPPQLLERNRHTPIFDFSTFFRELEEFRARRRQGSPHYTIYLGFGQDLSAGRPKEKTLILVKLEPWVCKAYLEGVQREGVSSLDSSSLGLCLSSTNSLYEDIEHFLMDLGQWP

Binder | binding [1] | binding [2]
USP2, endogenous in mouse bone marrow-derived macrophages (enzyme, UniProt O88623 1-619) MSQLSSTLKRYTESSRYTDAPYAKPGYGTYTPSSYGANLAASFLEKEKLGFKPVSPTSFLPRPRTYGPSSILDCDRGRPLLRSDIIGSSKRSESQTRGNERPSGSGLNGGSGFSYGVSSNSLSYLPMNARDQGVTLSQKKSNSQSDLARDFSSLRTSDGYRTSDGYRTSEGFRIDPGNLGRSPMLARTRKELCALQGLYQAASRSEYLTDYLENYGRKGSAPQVLTQAPPPSRVPEVLSPTYRPSGRYTLWEKSKGQASGPSRSSSPGRDTMNSKSAQGLAGLRNLGNTCFMNSILQCLSNTRELRDYCLQRLYMRDLGHTSSAHTALMEEFAKLIQTIWTSSPNDVVSPSEFKTQIQRYAPRFMGYNQQDAQEFLRFLLDGLHNEVNRVAARPKASPETLDHLPDEEKGRQMWRKYLEREDSRIGDLFVGQLKSSLTCTDCGYCSTVFDPFWDLSLPIAKRGYPEVTLMDCMRLFTKEDILDGDEKPTCCRCRARKRCIKKFSVQRFPKILVLHLKRFSESRIRTSKLTTFVNFPLRDLDLREFASENTNHAVYNLYAVSNHSGTTMGGHYTAYCRSPVTGEWHTFNDSSVTPMSSSQVRTSDAYLLFYELASPPSRM | binds | 
OTUD5 in HEK-KO.IRF7 cells (enzyme, UniProt Q96G74 1-571) MTILPKKKPPPPDADPANEPPPPGPMPPAPRRGGGVGVGGGGTGVGGGDRDRDSGVVGARPRASPPPQGPLPGPPGALHRWALAVPPGAVAGPRPQQASPPPCGGPGGPGGGPGDALGAAAAGVGAAGVVVGVGGAVGVGGCCSGPGHSKRRRQAPGVGAVGGGSPEREEVGAGYNSEDEYEAAAARIEAMDPATVEQQEHWFEKALRDKKGFIIKQMKEDGACLFRAVADQVYGDQDMHEVVRKHCMDYLMKNADYFSNYVTEDFTTYINRKRKNNCHGNHIEMQAMAEMYNRPVEVYQYSTGTSAVEPINTFHGIHQNEDEPIRVSYHRNIHYNSVVNPNKATIGVGLGLPSFKPGFAEQSLMKNAIKTSEESWIEQQMLEDKKRATDWEATNEAIEEQVARESYLQWLRDQEKQARQVRGPSQPRKASATCSSATAAASSGLEEWTSRSPRQRSSASSPEHPELHAELGMKPPSPGTVLALAKPPSPCAPGTSSQFSAGADRATSPLVSLYPALECRALIQQMSPSAFGLNDWDDDEILASVLAVSQQEYLDSMKKNKVHRDPPPDKS |  | binds
OTUD5, endogenous in mouse bone marrow-derived macrophages (enzyme, UniProt Q3U2S4 1-566) MTILPKKKPPPPDADPANEPPPPGPLPPAPRRGAGVGVGGGGTGVGGGERDRDSGVVGARPRASPPPQGPLPGPPGALHRWALAVPPGAVAGPRPQQASPPPCGGPGGPGGGPGDALGATTAGVGAAGVVVGVGGTVGVGGCCSGPGHSKRRRQAPGVGAVGGASPEREEVGAGYNSEDEYEAAAARIEAMDPATVEQQEHWFEKALRDKKGFIIKQMKEDGACLFRAVADQVYGDQDMHEVVRKHCMDYLMKNADYFSNYVTEDFTTYINRKRKNNCHGNHIEMQAMAEMYNRPVEVYQYSTEPINTFHGIHQNEDEPIRVSYHRNIHYNSVVNPNKATIGVGLGLPSFKPGFAEQSLMKNAIKTSEESWIEQQMLEDKKRATDWEATNEAIEEQVARESYLQWLRDQEKQARQVRGPSQPRKASATCSSATAAASSGLEEWTSRSPRQRSSASSPEHPELHAELGIKPPSPGTVLALAKPPSPCAPGTSSQFSAGGDRATSPLVSLYPALECRALIQQMSPSAFGLNDWDDDEILASVLAVSQQEYLDSMKKNKVHREPPPDKS | binds | 
